Source: paper PMC6310259

Target: T1, NPR2, yeast two-hybrid fusion (Arabidopsis thaliana) (UniProt Q9SZI3)
T1 sequence: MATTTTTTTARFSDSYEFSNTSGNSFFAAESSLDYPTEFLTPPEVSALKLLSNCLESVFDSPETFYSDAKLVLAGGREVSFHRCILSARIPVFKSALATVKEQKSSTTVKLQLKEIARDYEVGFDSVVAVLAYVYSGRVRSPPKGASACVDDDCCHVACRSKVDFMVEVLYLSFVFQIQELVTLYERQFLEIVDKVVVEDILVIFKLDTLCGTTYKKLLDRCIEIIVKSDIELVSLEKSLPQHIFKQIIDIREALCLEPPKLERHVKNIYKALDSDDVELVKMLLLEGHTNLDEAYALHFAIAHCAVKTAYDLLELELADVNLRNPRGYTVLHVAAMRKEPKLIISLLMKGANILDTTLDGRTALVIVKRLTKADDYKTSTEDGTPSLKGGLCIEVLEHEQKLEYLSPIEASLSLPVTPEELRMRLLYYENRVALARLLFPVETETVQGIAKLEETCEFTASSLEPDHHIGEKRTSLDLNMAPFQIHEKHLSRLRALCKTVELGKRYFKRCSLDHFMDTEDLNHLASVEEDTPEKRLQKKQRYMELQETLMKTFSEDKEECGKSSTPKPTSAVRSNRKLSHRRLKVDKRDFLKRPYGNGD
Test: two-hybrid; yeast with one cDNA in pDEST22 and one in pDEST32; growth on -His with 100 μM SA or 100 μM HBA, without 3AT (Fig 4b)

Substance | binding
β carbonic anhydrase 3 (CA3), yeast two-hybrid fusion (Arabidopsis thaliana) | no binding
β carbonic anhydrase 1 (βCA1f), yeast two-hybrid fusion (Arabidopsis thaliana) | binds

These are yes or no findings as the source states them, for the method shown. Binding calls can cover weak binding; strength is not graded here. Where a sequence is shown, tags or fusion partners need not be part of it.
